Data source: PubChem BioAssay AID504774 (Drosophila RNAi Screening Center, 2011)

- Test: 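Genes required for cells to withstand methyl methanesulphonate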 (primary screen)
- System: Drosophila Kc167 cells
- Reagents: long dsRNA against Drosophila genes, about 0.25 µg dsRNA per well
- Timing: about 6 days: 3 days knock-down, then 3 days with or without MMS
- Challenge: methyl methanesulphonate 0.004% (w/v) for 3 days after knock-down
- Detection: 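ATP-dependent luminescence as a measure of live cells in MMS-exposed wells, quantile normalised within each plate, with replicate values also given as a mean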
- Direction: mean viability with MMS: higher = more surviving cells after MMS
In all, the deposit lists about 23,000 reagents; below is a random part of those that have a named target and a result. 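Values are quantile-normalised luminescence on an arbitrary scale; higher means more cells surviving MMS.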 The numbers tell different reagents against one gene apart. Not all columns of the deposit are shown.

no.	gene	dsRNA no.	mean viability with MMS
1	r2d2 (GeneID 34066)	1	3.44e6
2	Cenp-C (GeneID 41014)	1	3.21e6
3	CG31635 (GeneID 33928)	1	3.78e6
4	CG31635 (GeneID 33928)	2	3.34e6
5	CG9727 (GeneID 40794)	1	3.61e6
6	CG31259 (GeneID 41010)	1	3.58e6
7	CG10845 (GeneID 42978)	1	3.70e6
8	LanA (GeneID 38723)	1	3.58e6
9	fipi (GeneID 33676)	1	3.44e6
10	CG32024 (GeneID 317828)	1	3.49e6
11	CG18473 (GeneID 41116)	1	3.46e6
12	Nf-YB (GeneID 35261)	1	3.59e6
13	Gr59e (GeneID 37725)	1	3.54e6
14	CG11125 (GeneID 35669)	1	3.54e6
15	mgl (GeneID 8674055)	1	3.81e6
16	mgl (GeneID 8674055)	2	3.62e6
17	mgl (GeneID 8674055)	3	3.65e6
18	mgl (GeneID 8674055)	4	3.54e6
19	Tsp42Ea (GeneID 59178)	1	3.64e6
20	Tsp42Ea (GeneID 59178)	2	3.67e6
21	chas (GeneID 32748)	1	3.61e6
22	chas (GeneID 32748)	2	3.76e6
23	Sac1 (GeneID 38137)	1	3.68e6
24	nopo (GeneID 37083)	1	3.56e6
25	CG13108 (GeneID 34240)	1	3.68e6
26	BomS6 (GeneID 50206)	1	3.70e6
27	CG11085 (GeneID 32213)	1	3.59e6
28	CG11085 (GeneID 32213)	2	3.51e6

Part of the list above in another layout.
gene,dsRNA no.,mean viability with MMS
CG10845 (GeneID 42978),1,3.70e6
LanA (GeneID 38723),1,3.58e6
fipi (GeneID 33676),1,3.44e6
CG32024 (GeneID 317828),1,3.49e6
CG18473 (GeneID 41116),1,3.46e6
